These are yes or no findings as the source states them, for the method shown. Binding seen in cells or lysates may run through a third protein. Some binding calls cover weakened binding; strength is not graded here. Tags and fused reporters may be left off the sequences shown.
T1: AcGFP-tagged YULINK (over-expressed in HUVECs) (human) (UniProt Q9NXC5)
T1 sequence: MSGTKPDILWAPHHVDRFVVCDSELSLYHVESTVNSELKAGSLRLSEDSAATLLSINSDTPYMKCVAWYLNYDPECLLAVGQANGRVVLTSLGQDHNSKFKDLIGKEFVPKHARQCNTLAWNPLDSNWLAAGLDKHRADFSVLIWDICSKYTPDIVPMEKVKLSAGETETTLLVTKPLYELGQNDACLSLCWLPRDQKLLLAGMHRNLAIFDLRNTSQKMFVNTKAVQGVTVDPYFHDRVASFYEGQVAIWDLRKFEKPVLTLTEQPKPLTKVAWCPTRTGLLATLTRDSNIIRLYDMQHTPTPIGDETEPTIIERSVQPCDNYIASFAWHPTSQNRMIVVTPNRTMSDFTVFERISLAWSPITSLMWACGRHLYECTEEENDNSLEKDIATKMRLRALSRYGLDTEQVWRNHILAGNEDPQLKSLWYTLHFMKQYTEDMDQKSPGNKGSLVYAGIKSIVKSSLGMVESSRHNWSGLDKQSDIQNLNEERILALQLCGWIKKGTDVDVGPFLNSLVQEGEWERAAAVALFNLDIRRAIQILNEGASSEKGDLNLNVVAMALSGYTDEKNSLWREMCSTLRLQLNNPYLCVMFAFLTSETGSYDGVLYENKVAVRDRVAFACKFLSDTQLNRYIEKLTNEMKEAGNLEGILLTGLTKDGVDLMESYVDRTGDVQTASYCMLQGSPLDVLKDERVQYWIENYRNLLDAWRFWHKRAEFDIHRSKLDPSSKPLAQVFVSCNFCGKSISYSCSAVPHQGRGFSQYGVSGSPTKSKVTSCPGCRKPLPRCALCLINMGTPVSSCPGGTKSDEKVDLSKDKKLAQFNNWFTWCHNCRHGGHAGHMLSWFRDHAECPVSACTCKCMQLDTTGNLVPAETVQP

Sequences of proteins named here, by UniProt entry; tags and fusion partners are left off.
UniProt Q86XR7: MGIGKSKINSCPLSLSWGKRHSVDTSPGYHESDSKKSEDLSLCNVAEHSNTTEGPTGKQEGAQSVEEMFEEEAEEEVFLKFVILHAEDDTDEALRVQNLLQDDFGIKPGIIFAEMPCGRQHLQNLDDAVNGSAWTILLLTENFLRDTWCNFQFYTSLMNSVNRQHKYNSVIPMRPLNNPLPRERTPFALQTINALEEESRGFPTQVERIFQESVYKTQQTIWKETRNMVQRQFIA
UniProt Q9H082: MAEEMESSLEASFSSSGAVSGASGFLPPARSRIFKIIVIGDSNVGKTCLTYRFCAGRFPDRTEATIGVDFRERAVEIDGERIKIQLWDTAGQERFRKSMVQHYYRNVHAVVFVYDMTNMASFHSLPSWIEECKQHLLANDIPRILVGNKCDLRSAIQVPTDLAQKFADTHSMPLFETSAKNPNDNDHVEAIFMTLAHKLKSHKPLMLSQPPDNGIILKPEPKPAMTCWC


What follows are molecules tested against T1, AcGFP-tagged YULINK (over-expressed in HUVECs) (human) (assay: co-IP; AcGFP-YULINK over-expressed in HUVECs; lysate in 10 mM Tris/Cl pH 7.5, 150 mM NaCl, 0.5 mM EDTA, 0.5% NP-40; captured on GFP-Trap agarose beads; immunoblot for endogenous partners).

binding | Molecule
binds | TICAM2 (endogenous, HUVECs) (from UniProt Q86XR7 1-235)
binds | RAB33B (endogenous, HUVECs) (from UniProt Q9H082 1-229)
binds | DsRed-EPS15 (natural protein, human, UniProt P42566 1-896, looked up, EPS15 conjugated with DsRed; also called DsRed-ESP15; source: HEK-293 T, co-transfected, in live cells) MAAAAQLSLTQLSSGNPVYEKYYRQVDTGNTGRVLASDAAAFLKKSGLPDLILGKIWDLADTDGKGILNKQEFFVALRLVACAQNGLEVSLSSLNLAVPPPRFHDTSSPLLISGTSAAELPWAVKPEDKAKYDAIFDSLSPVNGFLSGDKVKPVLLNSKLPVDILGRVWELSDIDHDGMLDRDEFAVAMFLVYCALEKEPVPMSLPPALVPPSKRKTWVVSPAEKAKYDEIFLKTDKDMDGFVSGLEVREIFLKTGLPSTLLAHIWSLCDTKDCGKLSKDQFALAFHLISQKLIKGIDPPHVLTPEMIPPSDRASLQKNIIGSSPVADFSAIKELDTLNNEIVDLQREKNNVEQDLKEKEDTIKQRTSEVQDLQDEVQRENTNLQKLQAQKQQVQELLDELDEQKAQLEEQLKEVRKKCAEEAQLISSLKAELTSQESQISTYEEELAKAREELSRLQQETAELEESVESGKAQLEPLQQHLQDSQQEISSMQMKLMEMKDLENHNSQLNWCSSPHSILVNGATDYCSLSTSSSETANLNEHVEGQSNLESEPIHQESPARSSPELLPSGVTDENEVTTAVTEKVCSELDNNRHSKEEDPFNVDSSSLTGPVADTNLDFFQSDPFVGSDPFKDDPFGKIDPFGGDPFKGSDPFASDCFFRQSTDPFATSSTDPFSAANNSSITSVETLKHNDPFAPGGTVVAASDSATDPFASVFGNESFGGGFADFSTLSKVNNEDPFRSATSSSVSNVVITKNVFEETSVKSEDEPPALPPKIGTPTRPCPLPPGKRSINKLDSPDPFKLNDPFQPFPGNDSPKEKDPEIFCDPFTSATTTTNKEADPSNFANFSAYPSEEDMIEWAKRESEREEEQRLARLNQQEQEDLELAIALSKSEISEA

— PMC9969694, “YULINK regulates vascular formation in zebrafish and HUVECs” (Biological Research, 2023)
